In PubChem BioAssay (Tox21):
Where “and” joins values, the source holds several entries; their conditions need not be identical. Equal entries are not always repeated. This list was built around the results that the source calls inconclusive (neither active nor inactive); the mix of calls is not that of the screen. A potency beside an inconclusive call is a rough fit, not a confirmed value. Some structures have more than one record in an assay (separate samples or runs), and their calls can disagree. Calls of active or inactive are those of the source. Calls follow the shape of the dose curve; as a rule, active = well fitted inhibition curve with a large enough effect in the repeat runs; inconclusive = weak or mixed curves; inactive = no such curve, though single readings can be large or run the other way.

The chains behind the UniProt entries cited, without tags or fusion partners.
UniProt P10635, whole entry, looked up: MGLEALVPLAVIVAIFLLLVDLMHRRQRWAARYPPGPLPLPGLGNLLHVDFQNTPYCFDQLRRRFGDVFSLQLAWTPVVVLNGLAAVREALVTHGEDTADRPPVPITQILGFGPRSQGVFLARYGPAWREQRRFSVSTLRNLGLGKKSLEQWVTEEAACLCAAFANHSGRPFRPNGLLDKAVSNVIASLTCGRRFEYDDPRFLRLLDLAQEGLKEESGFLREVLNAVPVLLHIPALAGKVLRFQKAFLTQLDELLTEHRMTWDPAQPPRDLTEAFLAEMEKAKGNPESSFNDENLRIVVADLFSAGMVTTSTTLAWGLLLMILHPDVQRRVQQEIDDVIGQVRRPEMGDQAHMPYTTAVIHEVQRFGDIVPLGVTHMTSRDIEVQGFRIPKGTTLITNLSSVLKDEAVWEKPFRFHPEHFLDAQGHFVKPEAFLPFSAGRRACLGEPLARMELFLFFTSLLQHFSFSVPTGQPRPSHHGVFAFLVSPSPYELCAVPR
UniProt P33261, whole entry, looked up: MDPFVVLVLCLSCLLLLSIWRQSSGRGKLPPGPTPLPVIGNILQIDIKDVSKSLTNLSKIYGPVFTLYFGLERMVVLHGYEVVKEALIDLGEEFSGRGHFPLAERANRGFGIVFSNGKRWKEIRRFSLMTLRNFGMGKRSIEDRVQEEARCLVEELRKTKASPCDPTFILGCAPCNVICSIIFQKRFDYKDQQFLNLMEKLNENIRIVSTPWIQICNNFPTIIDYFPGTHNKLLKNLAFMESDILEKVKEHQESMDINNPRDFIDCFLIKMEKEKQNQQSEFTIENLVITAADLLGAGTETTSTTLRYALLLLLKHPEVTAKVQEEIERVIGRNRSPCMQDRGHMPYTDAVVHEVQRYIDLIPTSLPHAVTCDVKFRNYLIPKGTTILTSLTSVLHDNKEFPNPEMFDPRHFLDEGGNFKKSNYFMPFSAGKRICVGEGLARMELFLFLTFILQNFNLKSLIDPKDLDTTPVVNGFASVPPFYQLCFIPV

Each molecule was assayed against Cytochrome P450 2D6 (Homo sapiens) (UniProt P10635) (assay: Cytochrome P450 Family 2 Subfamily D Member 6 (CYP2D6) small molecule antagonists: luciferase reporter qHTS assay (AID 1671196; also: nearly all actives have a fitted effect of over 50% in size)). Settings: P450-Glo CYP2D6 enzyme assay, luciferin luminescence, 1 h; series mostly up to 115 µM.
How it was run: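 P450-Glo format: CYP2D6 converts a proluciferin substrate to luciferin in an NADPH-driven reaction lasting 1 h at room temperature. Light output, proportional to CYP2D6 activity, reflects interference by test chemicals.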
Potency is read from the fitted curve at half-maximal effect.

Structure (SMILES)	Potency
Oc1cc(Cl)ccc1Cl	inactive and inconclusive: 63.3 µM [inhibitor, partial curve, poor fit]
CC(C)(C)C(O)/C(=C\c1ccc(Cl)cc1Cl)n1cncn1 (centres undefined)	active: 34.2 µM
Cc1ncc(CNC(=O)N(CCCl)N=O)c(N)n1	inactive
C=CCN=C=S	inconclusive: 64.7 µM [inhibitor, partial curve, poor fit]
CS/C(C)=N/OC(=O)N(C)SN(C)C(=O)O/N=C(\C)SC	inconclusive: 89.4 µM [inhibitor, single point]
Cc1c(Cl)c(=O)oc2cc(OP(=O)(OCCCl)OCCCl)ccc12	active: 3.47 µM
O=C1NCN(c2ccccc2)C12CCN(CCCOc1ccc(F)cc1)CC2	active: 0.347 µM
Oc1cc(Cl)c(Cl)c(Cl)c1Cl	inconclusive: 87.3 µM [inhibitor, partial curve, poor fit]
Cc1ccc2c(C)cccc2c1	inactive
Nc1ccc(Cl)cc1C(=O)c1ccccc1	inconclusive: 39.9 µM [inhibitor, partial curve]
COC(=O)C(C)N(C(=O)Cc1ccccc1)c1c(C)cccc1C (centres undefined)	inconclusive: 35.6 µM [inhibitor, partial curve]
Oc1c(I)cc(I)cc1I	inconclusive: 63.3 µM [inhibitor, partial curve, poor fit]
C[C@]12C/C(=C/O)C(=O)C[C@@H]1CC[C@@H]1[C@@H]2CC[C@@]2(C)[C@H]1CC[C@]2(C)O	inconclusive: 45.2 µM [inhibitor, partial curve]
CSC1=N[C@@](C)(c2ccccc2)C(=O)N1Nc1ccccc1	inconclusive: 63.3 µM [inhibitor, partial curve]
C=CC[C@]1(O)CC[C@H]2[C@@H]3CCC4=CC(=O)CCC4=C3C=C[C@@]21C	inconclusive: 38.9 µM [inhibitor, single point]
CCS(=O)(=O)C(C)(C)S(=O)(=O)CC	inconclusive: 34.7 µM [inhibitor, partial curve]
CC(=O)CCc1ccc2c(c1)OCO2	inconclusive: 39.9 µM [inhibitor, partial curve]
CC(C)=CC1C(C(=O)OCc2cccc(Oc3ccccc3)c2)C1(C)C (centres undefined)	active: 39.9 µM and inactive

The molecules below were run against Cytochrome P450 2C19 (Homo sapiens) (UniProt P33261) (assay: Cytochrome P450 Family 2 Subfamily C Member 19 (CYP2C19) small molecule antagonists: luciferase reporter qHTS assay (AID 1671197; also: nearly all actives have a fitted effect of over 65% in size)). Settings: P450-Glo CYP2C19 enzyme, luciferin luminescence, 1 h; series mostly up to 115 µM.
How it was run: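 Compounds were tested on CYP2C19 activity via proluciferin conversion to luciferin. The 37C, 1 h reaction followed NADPH addition; detection reagent stopped it.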

Structure (SMILES)	Potency
CNC(=O)Oc1cccc2c1OC(C)(C)C2	inconclusive: 89.4 µM [inhibitor, single point]
Nc1n[nH]c(N)n1	inactive
O=C(O)C(Cl)(Cl)Cl	inconclusive: 87.1 µM [inhibitor, single point] and inconclusive: 502 nM [inhibitor, single point]
O=c1n(Cl)c(=O)n(Cl)c(=O)n1Cl	inconclusive: 89.4 µM [inhibitor, single point]
Oc1c(Br)c(Br)c(Br)c(Br)c1Br	inactive
Oc1cc(Cl)c(Cl)c(Cl)c1Cl	inactive
Cc1ccc2c(C)cccc2c1	inactive
Oc1c(I)cc(I)cc1I	inconclusive: 89.4 µM [inhibitor, single point]
C[C@]12C/C(=C/O)C(=O)C[C@@H]1CC[C@@H]1[C@@H]2CC[C@@]2(C)[C@H]1CC[C@]2(C)O	inconclusive: 90.2 µM [inhibitor, single point]
O=C(NC(=O)c1c(F)cccc1F)Nc1cc(Cl)c(Oc2ncc(C(F)(F)F)cc2Cl)c(Cl)c1	inconclusive: 85.7 µM [inhibitor, single point]
CC(C)=CC1C(C(=O)OCc2cccc(Oc3ccccc3)c2)C1(C)C (centres undefined)	inconclusive: 17.4 µM [inhibitor, full curve, poor fit]
